Data as given in PubChem BioAssay AID1259308 (NCATS, 2017).

Test: 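Knock-downs that increase output of a recombinant reporter protein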 (primary screen)
Cell system: human HEK293 embryonic kidney cells stably expressing firefly luciferase (HEK-CMV-Luc2-Hygro)
Reagent: single siRNA against human genes, 0.8 pmol siRNA per well
Timing: 72 h
Read-out: 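Luciferase light (ONE-Glo) measured on one replicate plate set and viability (CellTiter-Glo) on the other, scaled to a negative control siRNA, with robust z-scores and luciferase per cell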
Direction: total luciferase, z-score and total luciferase, % of control: higher = more reporter protein produced
Call rule: 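Active when the median/MAD z-score for overall luciferase is greater than 3; a gene was taken forward for validation with new siRNAs if at least two of its three siRNAs passed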
Meaning of the calls: active = raised luciferase; inactive = no rise
The deposit covers about 59,000 reagents; this is an unselected part. About 1,510 of all reagents (2.6%) count as active. 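Calls use total luciferase alone and ignore viability, so some active siRNAs may act by altering cell number.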 Reagents against one gene are numbered here. Not all columns of the deposit are shown.

What did the screen give for CHMP4A (charged multivesicular body protein 4A) #1?
total luciferase, z-score: 1.79; total luciferase, % of control: 117; activity call: inactive

For CHMP4A (charged multivesicular body protein 4A) #2, what was measured?
total luciferase, z-score: -0.483; total luciferase, % of control: 72.3; activity call: inactive

With CHMP4A (charged multivesicular body protein 4A) #3, what was measured?
total luciferase, z-score: -1.02; total luciferase, % of control: 61.6; activity call: inactive

With OCRL (OCRL inositol polyphosphate-5-phosphatase) #1, what does the deposit list?
total luciferase, z-score: 5.23; total luciferase, % of control: 186; activity call: active

What did the screen give for OCRL (OCRL inositol polyphosphate-5-phosphatase) #2?
total luciferase, z-score: -0.29; total luciferase, % of control: 76.1; activity call: inactive

How did the screen score OCRL (OCRL inositol polyphosphate-5-phosphatase) #3?
total luciferase, z-score: 3.37; total luciferase, % of control: 149; activity call: active

How did the screen score RPL10L (ribosomal protein L10 like) #1?
total luciferase, z-score: -1.44; total luciferase, % of control: 53.2; activity call: inactive

How did the screen score RPL10L (ribosomal protein L10 like) #2?
total luciferase, z-score: 0.632; total luciferase, % of control: 94.5; activity call: inactive

With RPL10L (ribosomal protein L10 like) #3, how do the results read?
total luciferase, z-score: -1.86; total luciferase, % of control: 44.8; activity call: inactive

What is on record for DNASE1L3 (deoxyribonuclease 1L3) #1?
total luciferase, z-score: -1.37; total luciferase, % of control: 54.6; activity call: inactive

What is on record for DNASE1L3 (deoxyribonuclease 1L3) #2?
total luciferase, z-score: -0.191; total luciferase, % of control: 78.1; activity call: inactive

For DNASE1L3 (deoxyribonuclease 1L3) #3, what was measured?
total luciferase, z-score: -1.28; total luciferase, % of control: 56.4; activity call: inactive

For FLRT3 (fibronectin leucine rich transmembrane protein 3) #1, how do the results read?
total luciferase, z-score: 1.02; total luciferase, % of control: 102; activity call: inactive

With FLRT3 (fibronectin leucine rich transmembrane protein 3) #2, what does the deposit list?
total luciferase, z-score: 0.592; total luciferase, % of control: 93.7; activity call: inactive

For FLRT3 (fibronectin leucine rich transmembrane protein 3) #3, what does the deposit list?
total luciferase, z-score: 0.125; total luciferase, % of control: 84.4; activity call: inactive

Called active (from the list above):
OCRL (OCRL inositol polyphosphate-5-phosphatase) #1 | total luciferase, z-score = 5.23; total luciferase, % of control = 186; activity call = active
OCRL (OCRL inositol polyphosphate-5-phosphatase) #3 | total luciferase, z-score = 3.37; total luciferase, % of control = 149; activity call = active

The list goes on.
What did the screen give for AREG (amphiregulin) #1?
total luciferase, z-score: 2.67; total luciferase, % of control: 135; activity call: inactive

For AREG (amphiregulin) #2, what does the deposit list?
total luciferase, z-score: 0.106; total luciferase, % of control: 84; activity call: inactive

Which result is listed for AREG (amphiregulin) #3?
total luciferase, z-score: -0.128; total luciferase, % of control: 79.3; activity call: inactive

For SCN10A (sodium voltage-gated channel alpha subunit 10) #1, what was measured?
total luciferase, z-score: -1.95; total luciferase, % of control: 43; activity call: inactive

With SCN10A (sodium voltage-gated channel alpha subunit 10) #2, what was measured?
total luciferase, z-score: -0.0112; total luciferase, % of control: 81.7; activity call: inactive

What did the screen give for SCN10A (sodium voltage-gated channel alpha subunit 10) #3?
total luciferase, z-score: 0.214; total luciferase, % of control: 86.1; activity call: inactive

What did the screen give for ARGFX (arginine-fifty homeobox) #1?
total luciferase, z-score: 1.27; total luciferase, % of control: 107; activity call: inactive

For ARGFX (arginine-fifty homeobox) #2, how do the results read?
total luciferase, z-score: 0.623; total luciferase, % of control: 94.3; activity call: inactive

Which result is listed for ARGFX (arginine-fifty homeobox) #3?
total luciferase, z-score: 0.892; total luciferase, % of control: 99.6; activity call: inactive

With BRSK2 (BR serine/threonine kinase 2) #1, what was measured?
total luciferase, z-score: -0.0704; total luciferase, % of control: 80.5; activity call: inactive

Which result is listed for BRSK2 (BR serine/threonine kinase 2) #2?
total luciferase, z-score: -0.768; total luciferase, % of control: 66.6; activity call: inactive

Which result is listed for BRSK2 (BR serine/threonine kinase 2) #3?
total luciferase, z-score: 0.458; total luciferase, % of control: 91; activity call: inactive

For LRRC2 (leucine rich repeat containing 2) #1, what was measured?
total luciferase, z-score: 0.105; total luciferase, % of control: 84; activity call: inactive

For LRRC2 (leucine rich repeat containing 2) #2, what does the deposit list?
total luciferase, z-score: -1.14; total luciferase, % of control: 59.2; activity call: inactive

What is on record for LRRC2 (leucine rich repeat containing 2) #3?
total luciferase, z-score: 2.22; total luciferase, % of control: 126; activity call: inactive

For NPM3 (nucleophosmin/nucleoplasmin 3) #1, what does the deposit list?
total luciferase, z-score: 0.715; total luciferase, % of control: 96.1; activity call: inactive

For NPM3 (nucleophosmin/nucleoplasmin 3) #2, what was measured?
total luciferase, z-score: -0.267; total luciferase, % of control: 76.6; activity call: inactive

For NPM3 (nucleophosmin/nucleoplasmin 3) #3, what was measured?
total luciferase, z-score: 2.08; total luciferase, % of control: 123; activity call: inactive
